The source of these data is article PMC7956682.

Amino acid sequences for entries named in this document (tags omitted). A change or cut given only in a name is not applied to a line headed by its entry.
UniProt P29067: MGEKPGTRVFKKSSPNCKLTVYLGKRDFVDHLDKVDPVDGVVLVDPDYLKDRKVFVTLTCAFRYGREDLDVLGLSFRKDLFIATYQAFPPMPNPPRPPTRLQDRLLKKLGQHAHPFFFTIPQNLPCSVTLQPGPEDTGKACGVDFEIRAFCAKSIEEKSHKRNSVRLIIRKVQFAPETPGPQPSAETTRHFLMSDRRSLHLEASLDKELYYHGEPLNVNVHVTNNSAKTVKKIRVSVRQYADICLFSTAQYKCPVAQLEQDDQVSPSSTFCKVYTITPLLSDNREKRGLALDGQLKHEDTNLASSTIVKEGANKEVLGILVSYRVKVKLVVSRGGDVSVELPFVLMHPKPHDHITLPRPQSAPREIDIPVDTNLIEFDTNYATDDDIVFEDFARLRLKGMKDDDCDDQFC
UniProt Q14978: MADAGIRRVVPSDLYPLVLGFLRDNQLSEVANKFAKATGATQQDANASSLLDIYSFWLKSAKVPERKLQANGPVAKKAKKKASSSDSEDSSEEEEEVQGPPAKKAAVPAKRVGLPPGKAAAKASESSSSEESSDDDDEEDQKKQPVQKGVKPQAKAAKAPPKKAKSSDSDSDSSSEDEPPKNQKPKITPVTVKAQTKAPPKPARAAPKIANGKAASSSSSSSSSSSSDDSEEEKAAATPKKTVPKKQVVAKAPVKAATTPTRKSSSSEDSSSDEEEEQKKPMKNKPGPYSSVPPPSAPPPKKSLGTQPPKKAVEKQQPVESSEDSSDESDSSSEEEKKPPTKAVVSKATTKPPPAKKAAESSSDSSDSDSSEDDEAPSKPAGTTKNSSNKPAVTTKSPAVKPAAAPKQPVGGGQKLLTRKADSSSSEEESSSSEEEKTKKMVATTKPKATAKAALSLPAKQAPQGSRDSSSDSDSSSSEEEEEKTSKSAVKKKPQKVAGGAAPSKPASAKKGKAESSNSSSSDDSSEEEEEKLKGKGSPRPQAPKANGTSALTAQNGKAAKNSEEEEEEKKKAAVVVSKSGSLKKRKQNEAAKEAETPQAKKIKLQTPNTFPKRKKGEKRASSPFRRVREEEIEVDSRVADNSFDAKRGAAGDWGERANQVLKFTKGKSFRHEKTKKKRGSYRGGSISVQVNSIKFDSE
UniProt O00567: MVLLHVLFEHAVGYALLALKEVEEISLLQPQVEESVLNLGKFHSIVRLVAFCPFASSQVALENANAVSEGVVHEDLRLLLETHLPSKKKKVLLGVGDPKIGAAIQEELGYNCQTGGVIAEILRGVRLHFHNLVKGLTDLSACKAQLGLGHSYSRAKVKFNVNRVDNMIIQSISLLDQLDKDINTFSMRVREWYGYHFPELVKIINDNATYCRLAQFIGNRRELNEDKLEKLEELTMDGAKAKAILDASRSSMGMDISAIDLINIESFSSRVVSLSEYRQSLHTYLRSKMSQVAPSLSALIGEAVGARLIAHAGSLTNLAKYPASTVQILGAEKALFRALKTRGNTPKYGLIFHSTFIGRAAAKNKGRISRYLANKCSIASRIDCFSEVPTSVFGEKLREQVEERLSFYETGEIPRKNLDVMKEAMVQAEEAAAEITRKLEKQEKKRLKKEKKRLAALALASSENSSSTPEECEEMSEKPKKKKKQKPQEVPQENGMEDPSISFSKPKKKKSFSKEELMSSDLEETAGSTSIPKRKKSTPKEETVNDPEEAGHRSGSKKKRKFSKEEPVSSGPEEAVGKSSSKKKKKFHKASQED
UniProt P06748: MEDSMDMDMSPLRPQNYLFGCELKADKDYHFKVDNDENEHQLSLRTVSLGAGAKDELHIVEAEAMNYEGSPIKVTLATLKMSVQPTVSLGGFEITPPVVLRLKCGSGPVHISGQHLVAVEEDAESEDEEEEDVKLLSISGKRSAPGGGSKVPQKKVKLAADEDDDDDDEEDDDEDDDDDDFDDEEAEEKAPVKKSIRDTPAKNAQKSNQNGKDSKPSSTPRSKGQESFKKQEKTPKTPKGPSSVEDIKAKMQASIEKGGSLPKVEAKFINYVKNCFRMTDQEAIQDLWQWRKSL

B1: treacle protein (TCOF1) (protein, UniProt Q13428 1-1488)
chain: MAEARKRRELLPLIYHHLLRAGYVRAAREVKEQSGQKCFLAQPVTLLDIYTHWQQTSELGRKRKAEEDAALQAKKTRVSDPISTSESSEEEEEAEAETAKATPRLASTNSSVLGADLPSSMKEKAKAETEKAGKTGNSMPHPATGKTVANLLSGKSPRKSAEPSANTTLVSETEEEGSVPAFGAAAKPGMVSAGQADSSSEDTSSSSDETDVEGKPSVKPAQVKASSVSTKESPARKAAPAPGKVGDVTPQVKGGALPPAKRAKKPEEESESSEEGSESEEEAPAGTRSQVKASEKILQVRAASAPAKGTPGKGATPAPPGKAGAVASQTKAGKPEEDSESSSEESSDSEEETPAAKALLQAKASGKTSQVGAASAPAKESPRKGAAPAPPGKTGPAVAKAQAGKREEDSQSSSEESDSEEEAPAQAKPSGKAPQVRAASAPAKESPRKGAAPAPPRKTGPAAAQVQVGKQEEDSRSSSEESDSDREALAAMNAAQVKPLGKSPQVKPASTMGMGPLGKGAGPVPPGKVGPATPSAQVGKWEEDSESSSEESSDSSDGEVPTAVAPAQEKSLGNILQAKPTSSPAKGPPQKAGPVAVQVKAEKPMDNSESSEESSDSADSEEAPAAMTAAQAKPALKIPQTKACPKKTNTTASAKVAPVRVGTQAPRKAGTATSPAGSSPAVAGGTQRPAEDSSSSEESDSEEEKTGLAVTVGQAKSVGKGLQVKAASVPVKGSLGQGTAPVLPGKTGPTVTQVKAEKQEDSESSEEESDSEEAAASPAQVKTSVKKTQAKANPAAARAPSAKGTISAPGKVVTAAAQAKQRSPSKVKPPVRNPQNSTVLARGPASVPSVGKAVATAAQAQTGPEEDSGSSEEESDSEEEAETLAQVKPSGKTHQIRAALAPAKESPRKGAAPTPPGKTGPSAAQAGKQDDSGSSSEESDSDGEAPAAVTSAQVIKPPLIFVDPNRSPAGPAATPAQAQAASTPRKARASESTARSSSSESEDEDVIPATQCLTPGIRTNVVTMPTAHPRIAPKASMAGASSSKESSRISDGKKQEGPATQVSKKNPASLPLTQAALKVLAQKASEAQPPVARTQPSSGVDSAVGTLPATSPQSTSVQAKGTNKLRKPKLPEVQQATKAPESSDDSEDSSDSSSGSEEDGEGPQGAKSAHTLGPTPSRTETLVEETAAESSEDDVVAPSQSLLSGYMTPGLTPANSQASKATPKLDSSPSVSSTLAAKDDPDGKQEAKPQQAAGMLSPKTGGKEAASGTTPQKSRKPKKGAGNPQASTLALQSNITQCLLGQPWPLNEAQVQASVVKVLTELLEQERKKVVDTTKESSRKGWESRKRKLSGDQPAARTPRSKKKKKLGAGEGGEASVSPEKTSTTSKGKAKRDKASGDVKEKKGKGSLGSQGAKDEPEEELQKGMGTVEGGDQSNPKSKKEKKKSDKRKKDKEKKEKKKKAKKASTKDSESPSQKKKKKKKKTAEQTV
B2: H/ACA ribonucleoprotein complex subunit DKC1 (DKC1) (protein, UniProt O60832 1-514)
chain: MADAEVIILPKKHKKKKERKSLPEEDVAEIQHAEEFLIKPESKVAKLDTSQWPLLLKNFDKLNVRTTHYTPLACGSNPLKREIGDYIRTGFINLDKPSNPSSHEVVAWIRRILRVEKTGHSGTLDPKVTGCLIVCIERATRLVKSQQSAGKEYVGIVRLHNAIEGGTQLSRALETLTGALFQRPPLIAAVKRQLRVRTIYESKMIEYDPERRLGIFWVSCEAGTYIRTLCVHLGLLLGVGGQMQELRRVRSGVMSEKDHMVTMHDVLDAQWLYDNHKDESYLRRVVYPLEKLLTSHKRLVMKDSAVNAICYGAKIMLPGVLRYEDGIEVNQEIVVITTKGEAICMAIALMTTAVISTCDHGIVAKIKRVIMERDTYPRKWGLGPKASQKKLMIKQGLLDKHGKPTDSTPATWKQEYVDYSESAKKEVVAEVVKAPQVVAEAAKTAKRKRESESESDETPPAAPQLIKKEKKKSKKDKKAKAGLESGAEPGDGDSDTTKKKKKKKKAKEVELVSE
B3: fibrillarin (FBL) (protein, UniProt P22087 1-321)
chain: MKPGFSPRGGGFGGRGGFGDRGGRGGRGGFGGGRGRGGGFRGRGRGGGGGGGGGGGGGRGGGGFHSGGNRGRGRGGKRGNQSGKNVMVEPHRHEGVFICRGKEDALVTKNLVPGESVYGEKRVSISEGDDKIEYRAWNPFRSKLAAAILGGVDQIHIKPGAKVLYLGAASGTTVSHVSDIVGPDGLVYAVEFSHRSGRDLINLAKKRTNIIPVIEDARHPHKYRMLIAMVDVIFADVAQPDQTRIVALNAHTFLRNGGHFVISIKANCIDSTASAEAVFASEVKKMQQENMKPQEQLTLEPYERDHAVVVGVYRPPPKVKN

No constants are given. Whether binding was seen depends on the method and setting. In cells and extracts the contact can be indirect. A yes stands for co-enrichment or nearness to the bait. Other partners may have been found.

This assay deals with L395Q ARRB2-YFP (UniProt P29067). Briefly: affinity purification with mass spectrometry; L395Q ARRB2-YFP immunoprecipitated with GFP-Trap magnetic beads (anti-GFP nanobody) from nuclear fractions of transfected HEK293 cells, precleared; heavy formaldehyde labelling, compared with WT ARRB2-YFP from cytosolic fractions (light label); LC-MS/MS.
Take “nucleolar and coiled-body phosphoprotein (NOLC1) (from UniProt Q14978 1-699)”: the binding entry was “binds”.
Then “nucleolar protein 56 (NOP56) (from UniProt O00567 1-594)”, with “binds”.
Then “nucleophosmin (NPM1) (from UniProt P06748 1-294)”, with “binds”; and B1, with “binds”.
Next, B2: “binds”; B3: “binds”.
